Here are results for one substance from publication PMC4211646.

By UniProt entry, the sequences of proteins in these tests, tags left out. Where a name states a change or a piece, a line headed by the entry shows the natural chain unless it says otherwise.
UniProt B8H092: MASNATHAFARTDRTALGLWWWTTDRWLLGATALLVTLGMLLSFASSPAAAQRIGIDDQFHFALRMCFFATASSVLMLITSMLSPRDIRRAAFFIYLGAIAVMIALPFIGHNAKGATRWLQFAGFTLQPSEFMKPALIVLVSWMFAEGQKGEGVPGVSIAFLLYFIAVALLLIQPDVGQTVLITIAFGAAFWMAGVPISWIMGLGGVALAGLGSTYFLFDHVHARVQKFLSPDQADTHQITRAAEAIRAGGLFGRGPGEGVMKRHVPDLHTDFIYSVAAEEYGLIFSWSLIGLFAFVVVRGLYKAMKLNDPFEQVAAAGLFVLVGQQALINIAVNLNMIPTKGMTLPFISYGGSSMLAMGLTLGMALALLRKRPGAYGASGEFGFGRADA
UniProt B8GX61: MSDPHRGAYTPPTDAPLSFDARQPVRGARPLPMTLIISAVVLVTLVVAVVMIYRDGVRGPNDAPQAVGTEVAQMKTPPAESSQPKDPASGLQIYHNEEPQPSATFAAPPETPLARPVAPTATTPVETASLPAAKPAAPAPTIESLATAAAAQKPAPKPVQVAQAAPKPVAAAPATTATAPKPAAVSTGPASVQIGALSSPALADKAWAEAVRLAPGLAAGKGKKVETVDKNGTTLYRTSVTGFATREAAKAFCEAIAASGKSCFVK

Results are given in words; binding and its absence hold for the method and conditions named. Binding calls can cover weak binding; strength is not graded here.

The experiment deals with FtsW (Caulobacter crescentus) (UniProt B8H092). As to the kind of experiment: two-hybrid; bacterial two-hybrid (adenylate cyclase T25 and T18 fusions) in E. coli BTH101; T25 fusion from the low-copy plasmid pKT25; colonies from LB restruck on MacConkey agar with maltose, red streaks are positive.

Take FtsN (from UniProt B8GX61): the binding result is listed as “binds”.
